Reference: PMC12180984

Amino acid sequences for entries named in this document (tags omitted). A change or cut given only in a name is not applied to a line headed by its entry.
UniProt Q08857: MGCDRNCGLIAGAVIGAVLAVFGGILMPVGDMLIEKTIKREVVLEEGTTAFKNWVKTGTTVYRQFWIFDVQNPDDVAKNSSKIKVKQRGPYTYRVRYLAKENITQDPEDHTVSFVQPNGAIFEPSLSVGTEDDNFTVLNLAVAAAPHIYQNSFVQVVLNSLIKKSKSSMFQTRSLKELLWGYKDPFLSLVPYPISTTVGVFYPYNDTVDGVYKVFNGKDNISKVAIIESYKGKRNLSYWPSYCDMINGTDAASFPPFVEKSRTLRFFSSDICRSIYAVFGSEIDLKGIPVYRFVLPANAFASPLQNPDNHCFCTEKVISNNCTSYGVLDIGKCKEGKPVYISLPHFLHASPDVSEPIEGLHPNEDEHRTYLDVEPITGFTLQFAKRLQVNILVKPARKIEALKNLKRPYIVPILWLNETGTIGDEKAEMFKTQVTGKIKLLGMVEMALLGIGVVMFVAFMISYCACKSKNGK

Molecular target: Glutathione S-transferase (GST)-fused CD36 protein (UniProt Q08857)
Test: pull-down; purified GST-CD36 on GST resin incubated with purified HA-ASM (Flag-ASM in the methods) for 12 h at 4 C in 50 mM Tris-HCl, 200 mM NaCl, 1 mM EDTA, 1% NP-40, 1 mM DTT, 10 mM MgCl2, pH 8.0; immunoblot; both purified

B1: HA-ASM, recombinant ASMase made in BL21 cells (enzyme, UniProt Q04519 45-627)
chain: LFDSTVLWVPARAYPLPSEGHSVKFSAIAPPLQSAFGWQNLTCPACKVLFTALNHGLKKEPNVARVGSVAIKICKMLNIAPLDVCQSAVHLFEDDVVEVWTRSVLSPSEACGLLLGSSCGHWDIFSTWNISLPSVPKPPPKPPSPPAPGAPVSRVLFLTDLHWDHEYLEGTDPYCADPLCCRRGSGWPPNSQKGAGFWGEYSKCDLPLRTLESLLKGLGPAGPFEMVYWTGDIPAHDVWQQSRQDQLRALTTITDLVRKFLGPVPVYPAVGNHESTPVNGFPPPFIKGNQSSQWLYEAMAKAWEPWLPADALHTLRIGGFYALTPRPGLRLISLNMNFCSRENFWLLINSTDPAGQLQWLVEELQAAENRGDKVHIIGHIPPGHCLKSWSWNYYKIIARYENTLAGQFFGHTHVDEFEIFYDEETLSRPLAVAFLAPSATTFINLNPGYRVYQIDGNYPGSSHVVLDHETYILNLTQANAAGGTPSWKRLYRARETYGLPDAMPASWHNLVYRMRDDEQLFQTFWFLYHKGHPPSEPCGTPCRLATLCAQLSARADSPALCRHLMPNGSLPDANRLWSRPLLC
With B1 the binding was “binds”.

Results are given in words; binding and its absence hold for the method and conditions named. A result given as binding can be weak or reduced; the word gives no strength. Tags and fused reporters may be left off the sequences shown.
